The assay is described as follows: qHTS Assay for Lipid Storage Modulators in Drosophila S3 Cells.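 As to cell number change: cells counted by Cell Tracker Red CMTPX staining in the red channel.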 The following applies: BODIPY lipid droplet fluorescence, 18-24 h; for cell number change: measured here: cell count max response, cells fed with added oleic acid. In a few lines:
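Drosophila S3 cells loaded with oleic acid (400 uM, as added) and compounds at several concentrations; lipid droplets imaged by 488-nm laser-scanning cytometry, 500–530 nm intensity and object ratio to cell channel. Percent activity normalized to 20 uM Triacsin C.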
Background: qHTS replaces the single test concentration by a dilution series.

The mark [1] stands for this setting: measured here: lipid fluorescence (Fed channel) AC50, cells fed with added oleic acid.
Setting [2] is: measured here: cell number channel AC50, cells fed with added oleic acid.

Cell number change and AC50 data for 37 molecules are collected here from PubChem BioAssay AID2685 (National Center for Advancing Translational Sciences (NCATS), 2010).

The term AC50 denotes the concentration giving half of the maximal activity seen.

The other results are listed elsewhere or left out. These are further read-outs of the screen, such as a control signal, another cell line or another target. No call is given for them. Compounds called inactive in the main read-out are mostly missing here. Words in brackets tell the shape of the fitted curve; partial curves, single points and poor fits give uncertain potencies.

Turning to `COc1ccc(N2CCN(CCNC(=O)c3ccc4c(c3)[nH]c(=S)n3c5ccccc5nc43)CC2)cc1`, the cell number change was -7.51%.
Regarding `CCc1noc(C)c1C(=O)OCC(=O)Nc1cccc(C)c1`, the cell number change was determined as 6.14%. For the same molecule, under setting [1], the AC50 was 29.1 µM [rising, partial curve, poor fit].
`CCN(CC)C(=O)c1cccc(-c2ccc(OC)cc2)c1`: the AC50 under setting [2] is 5.8 µM [rising, single point] and the half-maximal activity concentration (AC50) under setting [1] is 6.51 µM [rising, single point].
In the case of `C#CCN(C#N)c1nc(NCC)nc(NC(C)C)n1`, the AC50 under setting [2] is 0.58 µM [rising, full curve].
In the case of `CCOC(=O)c1cc(NC(=O)N(CC)C2CCCCC2)c(C)nc1C`, the cell number change is -12.2%. The AC50 under setting [1] was 8.2 µM [rising, partial curve].
Consider `Cc1c(NC(=O)CSCc2ccc(Cl)cc2Cl)cccc1C(=O)O`, for which the cell number change stood at 16.5%. In addition, under setting [2], the AC50 is 0.206 µM [rising, full curve].
Turning to `CCCc1nnc(NS(=O)(=O)c2ccc(OC)cc2)s1`, the cell number change was -12.7%. For the same molecule, under setting [1], the half-maximal activity concentration (AC50) is 0.013 µM [falling, full curve, poor fit].
Take `Clc1ccc(OCCCNCc2ccccc2)c2ccccc12`: the cell number change was -32.1%. Moreover, the half-maximal activity concentration (AC50) under setting [2] is 14.6 µM [falling, single point]. In addition, the AC50 under setting [1] is 20.6 µM [falling, single point].
`O=[N+]([O-])c1cc(S(=O)(=O)Nc2cccc(Cl)c2)ccc1N=Nc1c(O)[nH]c2ccccc12`: the cell number change was -30.8%. Further, the AC50 under setting [2] is 29.1 µM [falling, single point]. For the same molecule, the half-maximal activity concentration (AC50) under setting [1] is 29.1 µM [falling, single point].
With `COc1ccc(CCNC(=O)CSc2nc(=O)[nH]c3c2CCC3)cc1OC`, the cell number change was 0.673%.
Turning to `O=C(NCc1cccnc1)c1ccc(CS(=O)(=O)c2ccc(Cl)cc2)o1`, the cell number change was -13.4%.
On to `COc1ccc2nc(SCC(=O)O)nc(C)c2c1`, for which the cell number change is -20.1%.
Turning to `COc1cccc(C(=O)Nc2ccc(NC(=O)Cc3ccccc3)cc2)c1`, the cell number change was 6.88%. Further, under setting [1], the AC50 was 14.6 µM [falling, partial curve].
On to `Cc1cccc(NS(=O)(=O)c2cccc3nonc23)c1`, for which the cell number change is 28.4%. Further, under setting [1], the half-maximal activity concentration (AC50) is 29.1 µM [rising, single point].
With `COc1ccccc1NC(=O)C(C)OC(=O)CCCc1c[nH]c2ccccc12` (centres undefined), the cell number change was 41.1%. The AC50 under setting [2] is 25.9 µM [rising, single point]. For the same molecule, the AC50 under setting [1] is 23.1 µM [rising, partial curve].
As to `Clc1cccc(Cl)c1CNC1CCCC1`, the cell number change is -13.7%. Under setting [1], the half-maximal activity concentration (AC50) is 29.1 µM [falling, single point].
As to `COc1ccc(N2CCN(C(=O)CSc3nc4c(c(=O)n(C)c(=O)n4C)n3C(C)C)CC2)cc1`, the cell number change is 39.6%. Also, the half-maximal activity concentration (AC50) under setting [2] is 0.231 µM [rising, full curve]. The concentration at half-maximal activity (AC50) under setting [1] is 3.66 µM [rising, full curve].
In the case of `O=C(Nc1ccn(Cc2c(F)c(F)cc(F)c2F)n1)c1cccc(Cn2cc([N+](=O)[O-])cn2)c1`, the half-maximal activity concentration (AC50) by setting is: under setting [2], 3.66 µM [rising, single point]; under setting [1], 6.51 µM [rising, partial curve].
`COC(=O)C1(Cc2cc(-c3ccc(Cl)cc3)no2)CCN(C(=O)OC(C)(C)C)CC1`: the cell number change was 28.4%. The half-maximal activity concentration (AC50) under setting [1] was 29.1 µM [rising, single point].
Regarding `CC1Cc2ccccc2N1C(=O)CN1CCC(n2nnc3cc(C(F)(F)F)ccc32)CC1` (centres undefined), the cell number change is -128%. The AC50 under setting [2] is 25.9 µM [falling, single point].
Turning to `O=C(c1ccc([N+](=O)[O-])o1)N(Cc1nnc(-c2ccccc2Cl)o1)C1CC1`, the cell number change was -4.03%. For the same molecule, under setting [1], the AC50 was 0.00461 µM [rising, full curve, poor fit].
Regarding `COc1ccc(-c2cnc(N)n2C)cc1`, the cell number change is -16.1%. Further, the AC50 under setting [1] is 0.651 µM [falling, full curve, poor fit].
As for `Cc1ccc(C(=O)c2cc([N+](=O)[O-])ccc2N2CCOCC2)cc1`, the cell number change stood at 10.2%. The AC50 under setting [2] is 6.51 µM [falling, single point].
For the molecule `O=C(C1CC1)N1N=C(c2ccc(Cl)cc2)CC1(O)C(F)(F)F` (centres undefined), the cell number change was -56.2%. The half-maximal activity concentration (AC50) under setting [2] is 14.6 µM [falling, partial curve]. Also, the concentration at half-maximal activity (AC50) under setting [1] was 16.4 µM [falling, single point].
As to `COc1ccc(CC2(CO)CCN(S(=O)(=O)c3cccc4cccnc34)CC2)cc1`, the cell number change was -7.98%. Besides, the AC50 under setting [1] is 2.06 µM [falling, partial curve].
As to `CCC(OC(=O)c1ccco1)C(=O)NCc1ccc(OC)cc1` (centres undefined), the cell number change worked out at 1.26%. In addition, under setting [1], the half-maximal activity concentration (AC50) is 6.51 µM [falling, single point].
With `O=C(COc1coc(CN2CCN(c3ccccc3)CC2)cc1=O)NC1CCCCC1`, the concentration at half-maximal activity (AC50) under setting [2] was 0.58 µM [rising, single point].
On to `CN(Cc1ccccc1F)c1ncnc2sccc12`, for which the cell number change worked out at 3.63%. Moreover, the AC50 under setting [1] is 2.06 µM [rising, partial curve, poor fit].
In the case of `Cc1ccc(S(=O)(=O)NC(=NC(C)C)c2ccccc2)cc1`, the cell number change was -0.477%. Further, under setting [1], the AC50 is 0.092 µM [falling, full curve, poor fit].
For the molecule `CCOc1ccc(C2(C)NC(=O)N(CCN(C)C)C2=O)cc1` (centres undefined), the cell number change stood at 4.01%. Moreover, the AC50 under setting [1] was 0.13 µM [falling, full curve, poor fit].
With `CC(C)CN(CCNC(=O)CN1N=C(c2ccc(Cl)cc2)CCC1=O)CC(C)C`, the cell number change was 11.3%. Moreover, the AC50 under setting [2] was 0.58 µM [rising, partial curve, poor fit]. For the same molecule, the AC50 under setting [1] was 13 µM [falling, partial curve].
On to `CCc1nnc(NS(=O)(=O)c2ccc(NC(=O)COc3ccc(Cl)c(C)c3)cc2)s1`, for which the cell number change was 9.47%. Further, the AC50 under setting [2] was 6.51 µM [falling, single point]. The half-maximal activity concentration (AC50) under setting [1] is 6.51 µM [falling, partial curve, poor fit].
`Cc1nn(CCOc2cccc(Br)c2)c(C)c1[N+](=O)[O-]`: the cell number change turned out to be 6.43%.
For the molecule `Cc1ccc(C(=O)NCCNS(=O)(=O)c2ccccc2[N+](=O)[O-])cc1`, the cell number change was -3.65%. Also, the AC50 under setting [1] was 0.58 µM [rising, full curve].
As for `Cc1cccc(OCC(=O)OC(C)CN2CCCCC2)c1` (centres undefined), the cell number change came out at 12.3%. Further, under setting [1], the concentration at half-maximal activity (AC50) is 11.6 µM [rising, single point].
Regarding `CCCCn1c(SCC(=O)Nc2nnc(C)s2)nc2c1c(=O)n(C)c(=O)n2C`, the cell number change is 5.91%. The concentration at half-maximal activity (AC50) under setting [2] is 1.84 µM [rising, single point]. Moreover, under setting [1], the concentration at half-maximal activity (AC50) is 2.06 µM [rising, full curve].
Consider `Cc1ccc(-c2nc(N)c3c(-c4ccc(C)cc4)nn(C(C)(C)C)c3n2)cc1`, for which the half-maximal activity concentration (AC50) under setting [1] is 3.66 µM [falling, partial curve].
